# Laboratory results from patent US20140017253A1.
# Chains of the proteins cited; added tags and fusions are not shown. Lines headed by an entry give the natural chain unless they say otherwise; changes in a name come on top.
# UniProt O75473: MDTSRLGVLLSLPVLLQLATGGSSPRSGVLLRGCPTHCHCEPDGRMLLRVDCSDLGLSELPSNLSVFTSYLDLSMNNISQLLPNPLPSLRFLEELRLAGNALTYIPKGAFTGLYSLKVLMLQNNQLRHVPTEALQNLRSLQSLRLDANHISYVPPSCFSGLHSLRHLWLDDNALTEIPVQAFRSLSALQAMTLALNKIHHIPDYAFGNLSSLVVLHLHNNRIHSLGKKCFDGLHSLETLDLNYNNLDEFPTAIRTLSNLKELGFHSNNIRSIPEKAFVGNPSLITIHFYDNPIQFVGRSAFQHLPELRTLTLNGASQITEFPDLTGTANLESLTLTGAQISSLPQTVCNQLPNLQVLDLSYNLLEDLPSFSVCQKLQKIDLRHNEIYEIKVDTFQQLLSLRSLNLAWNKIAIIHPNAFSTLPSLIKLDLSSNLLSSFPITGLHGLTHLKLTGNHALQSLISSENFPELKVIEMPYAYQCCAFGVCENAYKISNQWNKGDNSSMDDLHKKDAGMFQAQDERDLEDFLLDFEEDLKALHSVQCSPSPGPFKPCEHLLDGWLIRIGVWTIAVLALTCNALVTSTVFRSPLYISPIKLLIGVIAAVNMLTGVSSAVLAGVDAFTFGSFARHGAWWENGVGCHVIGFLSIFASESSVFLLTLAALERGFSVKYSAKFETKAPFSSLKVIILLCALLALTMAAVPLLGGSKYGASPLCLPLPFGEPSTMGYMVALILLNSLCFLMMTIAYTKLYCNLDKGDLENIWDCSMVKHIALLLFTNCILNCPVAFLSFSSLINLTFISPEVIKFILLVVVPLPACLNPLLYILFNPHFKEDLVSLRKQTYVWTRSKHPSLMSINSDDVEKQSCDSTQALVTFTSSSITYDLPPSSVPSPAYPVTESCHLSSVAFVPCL
# Results are given in words; binding and its absence hold for the method and conditions named. Some results given as binding are weak or reduced against the parent protein; the word gives no strength. Where a sequence is shown, tags or fusion partners need not be part of it.
# B1: recombinant RSPO3-biotin fusion protein (ligand, UniProt Q9BXY4 22-272, looked up)
# chain: QNASRGRRQRRMHPNVSQGCQGGCATCSDYNGCLSCKPRLFFALERIGMKQIGVCLSSCPSGYYGTRYPDINKCTKCKADCDTCFNKNFCTKCKSGFYLHLGKCLDNCPEGLEANNHTMECVSIVHCEVSEWNPWSPCTKKGKTCGFKRGTETRVREIIQHPSAKGNLCPPTNETRKCTVQRKKCQKGERGKKGRERKRKKPNKGESKEAIPDSKSLESSKEIPEQRENKQQQKKRKVQDKQKSVSVSTVH
# modifications: biotin (site and way of attachment not stated)
# Molecular target: T1, FLAG-LGR5-CD4TM-GFP (cell surface human LGR5 on transfected HEK-293 cells) (human) (UniProt O75473+P01730)
# T1 sequence: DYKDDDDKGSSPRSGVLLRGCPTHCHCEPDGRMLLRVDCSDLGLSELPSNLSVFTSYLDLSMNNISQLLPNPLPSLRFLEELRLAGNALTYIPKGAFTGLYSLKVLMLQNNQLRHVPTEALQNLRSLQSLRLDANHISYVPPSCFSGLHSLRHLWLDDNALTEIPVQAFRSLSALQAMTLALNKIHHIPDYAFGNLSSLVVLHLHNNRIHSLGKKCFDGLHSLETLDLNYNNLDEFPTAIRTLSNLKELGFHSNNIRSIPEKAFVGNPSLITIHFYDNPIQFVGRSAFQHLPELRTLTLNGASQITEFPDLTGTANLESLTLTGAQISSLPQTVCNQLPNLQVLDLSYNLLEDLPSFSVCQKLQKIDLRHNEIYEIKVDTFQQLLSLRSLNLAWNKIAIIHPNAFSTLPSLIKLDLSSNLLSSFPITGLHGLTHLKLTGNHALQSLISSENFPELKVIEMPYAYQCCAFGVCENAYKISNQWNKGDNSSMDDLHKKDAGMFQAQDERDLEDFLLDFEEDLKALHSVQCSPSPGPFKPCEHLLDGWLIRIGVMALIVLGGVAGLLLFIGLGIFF
# Assay: FACS on HEK-293T cells transfected with FLAG-LGR5-CD4TM-GFP; 10 nM RSPO3-biotin without antibody, detected with PE-conjugated streptavidin
binder,measurement,value
B1,binding,binds
